Results are given in words; binding and its absence hold for the method and conditions named. Binding seen in cells or lysates may run through a third protein. A yes stands for co-enrichment or nearness to the bait. Other partners may have been found. Where a sequence is shown, tags or fusion partners need not be part of it.
Target: T1, AMDHD1-3×FLAG (stably overexpressed, AMDHD1-OV cells) (UniProt Q96NU7)
T1 sequence: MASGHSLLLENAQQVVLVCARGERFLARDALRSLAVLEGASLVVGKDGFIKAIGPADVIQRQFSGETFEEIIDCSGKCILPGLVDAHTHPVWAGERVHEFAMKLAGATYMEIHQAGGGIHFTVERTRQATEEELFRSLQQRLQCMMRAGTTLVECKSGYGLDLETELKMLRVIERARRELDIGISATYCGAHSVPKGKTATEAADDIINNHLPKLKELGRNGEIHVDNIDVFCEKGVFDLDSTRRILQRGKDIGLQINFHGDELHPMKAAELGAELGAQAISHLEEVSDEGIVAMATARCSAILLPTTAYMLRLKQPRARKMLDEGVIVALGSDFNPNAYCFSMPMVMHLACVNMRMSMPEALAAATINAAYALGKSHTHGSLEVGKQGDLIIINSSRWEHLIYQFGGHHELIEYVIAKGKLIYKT
Assay: affinity purification with mass spectrometry; immunoprecipitation of AMDHD1 from AMDHD1-OV cells; bands cut from a Coomassie Blue gel, digested, Q Exactive HF-X

The chains behind the UniProt entries cited, without tags or fusion partners.
UniProt Q15796: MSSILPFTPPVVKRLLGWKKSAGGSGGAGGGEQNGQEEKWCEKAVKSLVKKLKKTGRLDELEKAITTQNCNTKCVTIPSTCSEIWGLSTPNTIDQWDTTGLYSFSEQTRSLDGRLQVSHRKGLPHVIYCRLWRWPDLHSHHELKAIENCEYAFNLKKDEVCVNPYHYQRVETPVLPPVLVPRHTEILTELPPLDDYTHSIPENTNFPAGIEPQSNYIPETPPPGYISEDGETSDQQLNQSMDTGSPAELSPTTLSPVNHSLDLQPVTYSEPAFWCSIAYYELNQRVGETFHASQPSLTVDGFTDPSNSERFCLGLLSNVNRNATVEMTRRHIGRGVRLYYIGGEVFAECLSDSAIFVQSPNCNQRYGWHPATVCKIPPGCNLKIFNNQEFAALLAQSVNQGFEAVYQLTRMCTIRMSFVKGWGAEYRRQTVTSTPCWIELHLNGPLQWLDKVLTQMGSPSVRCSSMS
UniProt Q13485: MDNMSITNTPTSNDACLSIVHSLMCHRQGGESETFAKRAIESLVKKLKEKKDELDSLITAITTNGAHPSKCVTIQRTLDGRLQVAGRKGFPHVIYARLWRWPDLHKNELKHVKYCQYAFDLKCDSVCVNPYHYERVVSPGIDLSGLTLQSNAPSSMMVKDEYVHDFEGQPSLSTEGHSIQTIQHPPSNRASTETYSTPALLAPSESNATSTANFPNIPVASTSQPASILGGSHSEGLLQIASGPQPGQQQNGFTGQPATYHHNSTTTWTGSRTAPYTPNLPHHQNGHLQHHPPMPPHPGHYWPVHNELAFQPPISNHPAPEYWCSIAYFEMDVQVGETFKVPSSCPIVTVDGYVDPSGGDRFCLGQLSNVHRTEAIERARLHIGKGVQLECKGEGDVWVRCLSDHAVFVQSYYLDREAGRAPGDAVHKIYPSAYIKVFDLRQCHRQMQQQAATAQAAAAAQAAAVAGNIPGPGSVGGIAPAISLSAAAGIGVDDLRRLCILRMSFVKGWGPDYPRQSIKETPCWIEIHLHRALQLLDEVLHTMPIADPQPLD

Row | binding | Substance
1 | binds | SMAD2 (endogenous, CCA cells) (from UniProt Q15796 1-467)
2 | binds | SMAD4 (endogenous, CCA cells) (from UniProt Q13485 1-552)

Reference: article PMC11742690
